Measurements from patent publication US20090285843A1 (Mannkind Corporation, priority 2002, published 2009).

Assay: peptide made by a vendor
Conditions: whole synthesis

Row | Sequence | purity (crude or final not stated)
1 | YFSKEEWEKMKASEKIFYVYMKRKYEAMTKLGFKATLP | 95%
2 | SSIEGNYTLRVDCTPLMYSLVHLTKEL | purity>95%

Plain letter strings leave the end groups untold.
